Experimental data as given in publication PMC6386767, “Characterization of recombinant fructose-1,6-bisphosphatase gene mutations: evidence of inhibition/activation of FBPase protein by gene mutation” (Bioscience Reports, 2019).
The source holds more than one record for some entries. This is not the full list of results. An entry can have further records. Results that share an entry appear to be repeats on other runs, samples or individuals.

By UniProt entry, the sequences of proteins in these tests, tags left out.
UniProt P00636, whole entry K113A: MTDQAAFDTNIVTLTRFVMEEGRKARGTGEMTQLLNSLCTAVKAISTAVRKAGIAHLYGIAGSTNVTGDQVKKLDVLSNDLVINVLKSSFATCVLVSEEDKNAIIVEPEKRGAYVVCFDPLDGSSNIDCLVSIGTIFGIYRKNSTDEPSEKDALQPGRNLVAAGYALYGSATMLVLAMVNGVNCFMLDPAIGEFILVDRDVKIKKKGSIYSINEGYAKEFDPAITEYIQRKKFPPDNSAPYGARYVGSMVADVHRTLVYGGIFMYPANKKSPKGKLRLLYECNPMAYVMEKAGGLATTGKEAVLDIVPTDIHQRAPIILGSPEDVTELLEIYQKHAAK

Molecular target: pig kidney FBPase K112A (Sus scrofa, UniProt P00636, K113A)
Assay: Malachite Green kinetic assay, K112A mutant
Settings: enzyme K112A

Nc1ncnc2c1ncn2[C@@H]1O[C@H](COP(=O)(O)O)[C@@H](O)[C@H]1O
AMP Hill coefficient: 1.0 and 1 )
